# For at least one entry, the source does not settle the construct or the ends of the probe. Protein sequences can lack the tags named with them.
# Columns and labels:
# [1] = target: T1, E. coli RNase P holoenzyme, P RNA G332U (Escherichia coli) (UniProt P0A7Y8); assay: single-turnover kinetics by PAGE (K'); details: 17.5 mM Mg2+, indistinguishable from WT, value in Table 2, not in material; 2-aminopurine at position 8 (N-2) as printed, written A; Table 1 appears to swap the Cy3 between 5'Cy3-MD1 and 5'Ap(-2)-MD1; 50 mM MES pH 6, 100 mM NaCl, 17.5 mM MgCl2 (or CaCl2), 0.015% Triton X-100 reduced, 37 C (PAGE single turnover); stopped-flow in similar buffer; recombinant protein; label: 5' Cy3 on strand 1
# T1 sequence (looked up, limits assumed): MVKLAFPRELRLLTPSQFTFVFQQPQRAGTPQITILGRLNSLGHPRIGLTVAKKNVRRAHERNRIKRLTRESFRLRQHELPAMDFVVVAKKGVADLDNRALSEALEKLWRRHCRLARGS
# [2] = target: T2, E. coli RNase P holoenzyme, P RNA A333U (Escherichia coli) (UniProt P0A7Y8); assay: single-turnover kinetics by PAGE (K'); details: 17.5 mM Mg2+, minor effect on K', value in Table 2, not in material; 2-aminopurine at position 8 (N-2) as printed, written A; Table 1 appears to swap the Cy3 between 5'Cy3-MD1 and 5'Ap(-2)-MD1; 50 mM MES pH 6, 100 mM NaCl, 17.5 mM MgCl2 (or CaCl2), 0.015% Triton X-100 reduced, 37 C (PAGE single turnover); stopped-flow in similar buffer; recombinant protein; label: 5' Cy3 on strand 1
# T2 sequence (looked up, limits assumed): T1 sequence (looked up, limits assumed)
sequence,measurement,setting,value
ACCCAAAAUGGUCCGGGCGGG / CCCGUCCGGACCGCCA [5'Cy3-MD1],binding result,[1],binds
same,binding result,[2],binds
